Test results: patent US20150037340A1 (PEIRRE FABRE MEDICAMENT, published 2015)
These are yes or no findings as the source states them, for the method shown. Some results given as binding are weak or reduced against the parent protein; the word gives no strength.

Chains of the proteins cited; added tags and fusions are not shown. Lines headed by an entry give the natural chain unless they say otherwise; changes in a name come on top.
UniProt P30530: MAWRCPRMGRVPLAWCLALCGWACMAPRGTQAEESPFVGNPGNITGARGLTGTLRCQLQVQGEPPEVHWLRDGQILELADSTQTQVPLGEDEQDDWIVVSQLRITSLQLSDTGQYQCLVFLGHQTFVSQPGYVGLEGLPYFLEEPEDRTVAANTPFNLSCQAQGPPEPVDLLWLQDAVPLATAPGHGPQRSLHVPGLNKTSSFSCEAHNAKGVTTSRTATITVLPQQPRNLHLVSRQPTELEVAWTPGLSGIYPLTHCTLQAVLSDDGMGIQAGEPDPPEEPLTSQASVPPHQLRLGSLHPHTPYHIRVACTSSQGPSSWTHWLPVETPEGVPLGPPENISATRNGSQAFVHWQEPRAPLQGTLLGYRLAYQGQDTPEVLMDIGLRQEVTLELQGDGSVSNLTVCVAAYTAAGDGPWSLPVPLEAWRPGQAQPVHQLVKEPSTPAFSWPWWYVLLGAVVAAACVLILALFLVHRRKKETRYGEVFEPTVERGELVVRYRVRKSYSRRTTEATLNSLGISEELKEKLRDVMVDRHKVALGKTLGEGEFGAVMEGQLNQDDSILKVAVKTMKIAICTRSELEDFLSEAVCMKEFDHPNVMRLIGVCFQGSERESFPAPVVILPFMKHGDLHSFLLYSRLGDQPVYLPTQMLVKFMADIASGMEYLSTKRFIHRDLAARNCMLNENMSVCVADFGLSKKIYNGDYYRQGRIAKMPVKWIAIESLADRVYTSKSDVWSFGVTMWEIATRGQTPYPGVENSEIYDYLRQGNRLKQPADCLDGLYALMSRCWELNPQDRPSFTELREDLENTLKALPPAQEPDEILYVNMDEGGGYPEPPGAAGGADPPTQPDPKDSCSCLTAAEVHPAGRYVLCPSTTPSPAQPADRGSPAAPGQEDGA

Columns and labels:
[1] = biological target: recombinant human Axl-Fc (R and D Systems, cat No 154-AL / 154AL/CF) (human) (UniProt P30530); assay: ELISA on coated rhAxl-Fc
[2] = biological target: recombinant human Axl-Fc (R and D Systems, cat No 154-AL / 154AL/CF) (human) (UniProt P30530); assay: ELISA on coated rhAxl-Fc, detection with goat anti-mouse IgG-HRP
[3] = biological target: recombinant human Axl-Fc (R and D Systems, cat No 154-AL / 154AL/CF) (human) (UniProt P30530); assay: sandwich ELISA: coated antibody, rhAxl-Fc range, biotinylated anti-Axl detection
[4] = biological target: recombinant human Axl-Fc (R and D Systems, cat No 154-AL / 154AL/CF) (human) (UniProt P30530); assay: competition ELISA: rhAxl-Fc pre-incubated with the antibody, loaded on coated rhGas6 (blocked ligand), bound rhAxl-Fc detected with anti-human IgG-HRP
[5] = biological target: recombinant human Axl-Fc (R and D Systems, cat No 154-AL / 154AL/CF) (human) (UniProt P30530); assay: sandwich ELISA: plate coated with the antibody, rhAxl-Fc titrated (the axis on the sheet reads 'Ab concentration'), detection with a biotinylated anti-Axl antibody and avidin-HRP

Measured: binding

B1: 1613F12 antibody (murine form) (antibody, V domains shown)
VH: EVHLQQSGAELVKPGASVKLSCTASGFNIRDTYIHWVKQRPEQGLEWIGRLDPANGHTKYGPNFQGRATMTSDTSSNTAYLQLSSLTSEDTAVYYCARGAYYYGSSGLFYFDYWGQGTTLSVSS
VL: DVQITQSPSYLATSPGETITINCRASKSISKYLAWYQEKPGKTNKLLIYSGSTLQSGVPSRFSGSGSGTDFTLTISSLEPEDFAMYFCQQHHEYPLTFGAGTELELK
notes: Whole murine monoclonal antibody purified from a hybridoma; a murine IgG1 (9G4) serves as its isotype control; also called m1613F12; monoclonal antibody 1613F12 derived from the hybridoma I-4505
binds: [1] | [2] | [3] | [4] | [5]
